# Measured values from publication PMC3765211.
# The chains behind the UniProt entries cited, without tags or fusion partners.
# UniProt Q96CW1: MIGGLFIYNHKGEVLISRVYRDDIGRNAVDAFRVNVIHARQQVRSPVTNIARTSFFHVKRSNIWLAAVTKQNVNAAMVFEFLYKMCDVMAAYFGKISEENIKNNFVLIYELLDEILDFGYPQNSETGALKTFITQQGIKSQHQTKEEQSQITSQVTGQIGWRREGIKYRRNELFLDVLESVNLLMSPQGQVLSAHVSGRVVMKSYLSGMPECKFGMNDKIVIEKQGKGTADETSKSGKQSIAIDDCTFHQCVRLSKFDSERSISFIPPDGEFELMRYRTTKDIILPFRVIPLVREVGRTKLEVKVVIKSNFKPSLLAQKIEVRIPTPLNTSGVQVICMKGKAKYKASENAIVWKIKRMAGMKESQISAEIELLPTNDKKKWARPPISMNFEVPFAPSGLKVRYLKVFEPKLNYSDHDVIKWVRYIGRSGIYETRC
# UniProt P63010: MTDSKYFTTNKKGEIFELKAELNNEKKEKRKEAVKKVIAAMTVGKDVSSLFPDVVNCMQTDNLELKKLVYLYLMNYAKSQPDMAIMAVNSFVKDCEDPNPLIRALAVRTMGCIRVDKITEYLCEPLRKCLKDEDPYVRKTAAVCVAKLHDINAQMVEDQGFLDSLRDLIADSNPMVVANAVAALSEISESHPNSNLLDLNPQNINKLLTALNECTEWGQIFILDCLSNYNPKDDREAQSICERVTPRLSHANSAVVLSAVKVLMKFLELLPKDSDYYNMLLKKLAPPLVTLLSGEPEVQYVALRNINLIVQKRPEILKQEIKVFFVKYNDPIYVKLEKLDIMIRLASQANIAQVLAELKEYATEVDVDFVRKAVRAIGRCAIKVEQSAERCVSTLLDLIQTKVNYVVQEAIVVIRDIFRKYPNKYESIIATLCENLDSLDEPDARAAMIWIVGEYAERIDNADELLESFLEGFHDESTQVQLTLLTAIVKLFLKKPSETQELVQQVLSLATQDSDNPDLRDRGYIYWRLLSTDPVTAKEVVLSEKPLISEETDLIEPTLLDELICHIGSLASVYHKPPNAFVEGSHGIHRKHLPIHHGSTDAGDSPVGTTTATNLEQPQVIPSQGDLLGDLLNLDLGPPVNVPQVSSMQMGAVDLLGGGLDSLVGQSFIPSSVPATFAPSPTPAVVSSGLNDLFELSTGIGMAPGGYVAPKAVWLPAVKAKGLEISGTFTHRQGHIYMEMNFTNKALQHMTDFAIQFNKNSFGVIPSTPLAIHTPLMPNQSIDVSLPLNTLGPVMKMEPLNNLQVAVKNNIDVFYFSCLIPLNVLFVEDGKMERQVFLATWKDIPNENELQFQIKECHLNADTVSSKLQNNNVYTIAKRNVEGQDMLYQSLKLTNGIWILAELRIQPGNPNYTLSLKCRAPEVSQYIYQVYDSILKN
# UniProt O94973: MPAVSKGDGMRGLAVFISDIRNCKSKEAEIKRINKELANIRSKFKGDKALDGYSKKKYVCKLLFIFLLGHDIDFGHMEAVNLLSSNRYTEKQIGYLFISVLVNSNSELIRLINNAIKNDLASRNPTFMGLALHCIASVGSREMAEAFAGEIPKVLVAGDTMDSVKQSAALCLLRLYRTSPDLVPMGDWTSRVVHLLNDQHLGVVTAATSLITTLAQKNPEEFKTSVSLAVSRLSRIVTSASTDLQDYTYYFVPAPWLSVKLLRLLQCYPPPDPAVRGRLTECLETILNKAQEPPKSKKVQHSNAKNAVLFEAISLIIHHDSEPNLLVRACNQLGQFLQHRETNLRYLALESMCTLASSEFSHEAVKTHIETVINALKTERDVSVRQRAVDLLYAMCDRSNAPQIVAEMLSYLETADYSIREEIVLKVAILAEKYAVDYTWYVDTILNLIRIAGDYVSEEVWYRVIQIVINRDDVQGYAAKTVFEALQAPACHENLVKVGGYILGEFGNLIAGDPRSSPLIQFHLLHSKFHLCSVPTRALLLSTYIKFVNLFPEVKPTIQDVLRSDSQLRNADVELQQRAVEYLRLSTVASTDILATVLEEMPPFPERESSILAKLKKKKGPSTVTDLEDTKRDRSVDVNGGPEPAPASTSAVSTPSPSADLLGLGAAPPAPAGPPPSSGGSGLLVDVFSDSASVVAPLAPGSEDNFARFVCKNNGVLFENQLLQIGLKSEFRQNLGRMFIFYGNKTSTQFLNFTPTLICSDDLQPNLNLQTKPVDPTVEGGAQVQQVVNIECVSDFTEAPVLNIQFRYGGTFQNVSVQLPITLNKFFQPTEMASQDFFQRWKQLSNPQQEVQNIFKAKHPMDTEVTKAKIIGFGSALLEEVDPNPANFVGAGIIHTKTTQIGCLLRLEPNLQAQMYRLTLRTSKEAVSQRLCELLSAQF
# UniProt O95782: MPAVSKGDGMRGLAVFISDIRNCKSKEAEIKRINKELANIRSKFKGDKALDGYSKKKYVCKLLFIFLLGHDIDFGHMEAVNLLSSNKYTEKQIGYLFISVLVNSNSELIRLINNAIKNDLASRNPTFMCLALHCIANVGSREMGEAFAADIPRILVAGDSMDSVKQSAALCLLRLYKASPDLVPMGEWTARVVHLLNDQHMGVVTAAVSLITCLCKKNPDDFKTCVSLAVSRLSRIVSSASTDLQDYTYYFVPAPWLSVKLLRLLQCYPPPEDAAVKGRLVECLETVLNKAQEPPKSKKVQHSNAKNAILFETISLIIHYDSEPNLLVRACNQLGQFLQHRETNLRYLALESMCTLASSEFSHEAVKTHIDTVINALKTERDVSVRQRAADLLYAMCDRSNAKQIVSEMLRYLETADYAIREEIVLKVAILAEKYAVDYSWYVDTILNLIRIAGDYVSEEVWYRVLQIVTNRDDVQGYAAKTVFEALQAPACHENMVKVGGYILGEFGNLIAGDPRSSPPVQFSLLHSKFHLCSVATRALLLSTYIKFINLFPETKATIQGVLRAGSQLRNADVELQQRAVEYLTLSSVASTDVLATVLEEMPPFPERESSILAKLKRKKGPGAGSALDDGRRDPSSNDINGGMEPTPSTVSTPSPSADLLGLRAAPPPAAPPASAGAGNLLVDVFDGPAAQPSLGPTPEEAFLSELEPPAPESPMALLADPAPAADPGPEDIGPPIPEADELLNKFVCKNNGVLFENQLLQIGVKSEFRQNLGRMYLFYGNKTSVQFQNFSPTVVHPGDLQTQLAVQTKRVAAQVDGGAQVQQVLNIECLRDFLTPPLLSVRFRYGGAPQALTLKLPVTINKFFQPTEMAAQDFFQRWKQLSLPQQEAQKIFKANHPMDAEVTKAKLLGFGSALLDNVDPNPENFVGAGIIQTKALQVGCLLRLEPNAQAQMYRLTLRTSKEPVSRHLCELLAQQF
# No constants are given. Whether binding was seen depends on the method and setting. Binding seen in cells or lysates may run through a third protein. Here binding means that the protein was enriched with, or labelled near, the bait; the list need not be complete. Sequences can lack the tags named with a protein.
# Target: T1, BMCC1 GST F3 (amino acids 575-904) (human) (UniProt Q8WUY3)
# T1 sequence: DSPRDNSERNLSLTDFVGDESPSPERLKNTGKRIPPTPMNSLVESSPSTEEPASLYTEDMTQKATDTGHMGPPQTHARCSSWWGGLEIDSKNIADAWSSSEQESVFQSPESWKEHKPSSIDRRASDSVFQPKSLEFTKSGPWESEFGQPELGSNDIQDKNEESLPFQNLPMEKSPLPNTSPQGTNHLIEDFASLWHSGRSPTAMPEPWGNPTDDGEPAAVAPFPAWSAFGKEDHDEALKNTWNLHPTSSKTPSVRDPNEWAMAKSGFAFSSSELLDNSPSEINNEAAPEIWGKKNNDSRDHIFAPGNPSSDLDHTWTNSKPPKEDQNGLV
# Test: affinity purification with mass spectrometry; BMCC1 GST fragment 3 crosslinked to glutathione agarose, incubated with total LNCaP lysate at 4°C overnight (MCLB: 50 mM Tris pH 7.4, 150 mM NaCl, 1 mM EDTA, 1% NP-40); eluted proteins on silver-stained SDS-PAGE, 50 kDa and 110 kDa bands identified by MALDI MS/MS; only the target purified
row,binding,Substance
1,binds,AP-2M1 (from UniProt Q96CW1 1-435)
2,binds,AP-2B1/β-adaptin (from UniProt P63010 1-937)
3,binds,AP-2A2 (from UniProt O94973 1-939)
4,binds,AP-2A1 (from UniProt O95782 1-977)
